These are yes or no findings as the source states them, for the method shown. Some binding calls cover weakened binding; strength is not graded here. Sequences can lack the tags named with a protein.

Drawing on doi:10.1101/2024.01.11.570615, this text covers binding for 1 molecule.

Test [1] concerns the target T1, BARELY ANY MERISTEM1 (BAM1)-GFP (Arabidopsis thaliana) (UniProt O49545).
T1 sequence: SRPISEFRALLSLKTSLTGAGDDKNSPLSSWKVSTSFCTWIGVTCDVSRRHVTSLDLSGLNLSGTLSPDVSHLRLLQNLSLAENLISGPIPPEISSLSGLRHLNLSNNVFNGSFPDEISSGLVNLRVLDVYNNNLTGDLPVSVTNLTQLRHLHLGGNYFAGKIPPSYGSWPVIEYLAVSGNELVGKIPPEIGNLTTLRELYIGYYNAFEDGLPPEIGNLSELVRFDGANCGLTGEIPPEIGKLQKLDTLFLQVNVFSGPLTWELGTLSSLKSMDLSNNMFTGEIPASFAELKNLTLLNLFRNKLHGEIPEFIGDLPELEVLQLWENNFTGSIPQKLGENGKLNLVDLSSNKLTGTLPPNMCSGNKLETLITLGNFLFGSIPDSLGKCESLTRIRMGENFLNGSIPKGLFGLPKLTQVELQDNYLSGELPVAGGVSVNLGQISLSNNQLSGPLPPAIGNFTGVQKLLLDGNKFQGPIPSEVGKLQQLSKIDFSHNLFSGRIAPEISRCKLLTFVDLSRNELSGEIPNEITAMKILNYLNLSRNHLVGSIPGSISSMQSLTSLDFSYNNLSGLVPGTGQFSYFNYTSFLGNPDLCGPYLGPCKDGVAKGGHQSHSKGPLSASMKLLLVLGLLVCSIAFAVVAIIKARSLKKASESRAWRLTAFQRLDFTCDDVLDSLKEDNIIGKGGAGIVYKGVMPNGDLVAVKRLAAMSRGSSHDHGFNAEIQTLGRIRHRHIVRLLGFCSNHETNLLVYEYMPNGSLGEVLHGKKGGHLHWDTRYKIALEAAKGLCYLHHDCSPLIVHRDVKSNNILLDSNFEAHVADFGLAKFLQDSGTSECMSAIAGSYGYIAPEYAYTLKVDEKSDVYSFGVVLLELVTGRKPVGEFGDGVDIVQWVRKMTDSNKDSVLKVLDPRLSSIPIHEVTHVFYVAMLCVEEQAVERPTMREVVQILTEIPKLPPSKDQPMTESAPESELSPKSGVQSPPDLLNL
In words: confocal microscopy of fluorescent peptide on the plasma membrane of root cells.

Test [2] has as its target T2, PEP RECEPTOR 1 (PEPR1)-GFP (Arabidopsis thaliana) (UniProt Q9SSL9).
T2 sequence: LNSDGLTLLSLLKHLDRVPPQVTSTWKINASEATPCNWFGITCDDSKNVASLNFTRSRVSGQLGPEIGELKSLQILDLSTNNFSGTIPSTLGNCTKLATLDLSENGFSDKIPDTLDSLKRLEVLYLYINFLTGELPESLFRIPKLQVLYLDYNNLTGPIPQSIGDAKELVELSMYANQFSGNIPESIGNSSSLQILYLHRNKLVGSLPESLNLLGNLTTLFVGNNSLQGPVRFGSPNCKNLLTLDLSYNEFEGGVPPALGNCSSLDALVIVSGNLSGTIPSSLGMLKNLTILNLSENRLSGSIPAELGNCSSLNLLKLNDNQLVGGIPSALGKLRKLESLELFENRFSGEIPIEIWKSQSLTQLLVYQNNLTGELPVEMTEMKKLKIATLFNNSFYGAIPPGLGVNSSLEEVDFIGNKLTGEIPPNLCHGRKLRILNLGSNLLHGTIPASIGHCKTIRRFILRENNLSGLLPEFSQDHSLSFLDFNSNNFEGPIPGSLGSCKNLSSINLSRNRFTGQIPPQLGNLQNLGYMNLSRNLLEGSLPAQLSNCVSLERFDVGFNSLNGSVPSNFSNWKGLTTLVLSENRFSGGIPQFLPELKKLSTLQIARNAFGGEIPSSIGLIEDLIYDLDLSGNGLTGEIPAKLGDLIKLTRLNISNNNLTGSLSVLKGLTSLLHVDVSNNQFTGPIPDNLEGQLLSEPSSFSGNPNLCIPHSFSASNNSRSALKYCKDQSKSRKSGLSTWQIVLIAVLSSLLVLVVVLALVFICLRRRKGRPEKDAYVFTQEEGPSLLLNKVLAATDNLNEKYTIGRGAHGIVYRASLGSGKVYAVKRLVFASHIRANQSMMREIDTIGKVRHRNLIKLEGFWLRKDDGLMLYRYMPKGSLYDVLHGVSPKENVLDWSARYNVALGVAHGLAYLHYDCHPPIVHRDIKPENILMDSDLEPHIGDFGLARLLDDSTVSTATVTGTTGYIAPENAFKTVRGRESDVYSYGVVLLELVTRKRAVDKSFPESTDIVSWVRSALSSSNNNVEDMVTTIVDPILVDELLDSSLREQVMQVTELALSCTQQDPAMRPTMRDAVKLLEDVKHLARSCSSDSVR
The test is described as above.

With ATKVKAKQRGKEKVSSGRPGQHN (peptide, UniProt Q9LV87 70-92, TAMRA (position not given)) [pep1-TAMRA], the results for the binding entry in test [1] and in test [2] were “no binding (tested: 200 nM)” and “binds”, respectively.
